# The supplement of paper PMC11732987, “Enantioselective OTUD7B fragment discovery through chemoproteomics screening and high-throughput optimisation” (Communications Chemistry, 2025)
# The other results are listed elsewhere or left out. The data scatter; read single values as rough.
# Assays:
# [1] = compound: ClCC(=O)N[C@@H]1CCCc2ccccc12; assay: log2 mean competition ratio of IA-DTB cysteine labelling (DMSO/compound) (log2 ratio); higher = stronger cysteine engagement by compound; conditions: treatment time: 4 h, cell line lysate: HEK293T
# Method: (§1)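 IA-DTB competitive cysteine chemoproteomics in HEK293T RIPA lysate. Lysates were treated with compound 29 or 30 at 50 or 200 µM for 4 h, then IA-DTB (500 µM, 1 h), trypsin-digested, NeutrAvidin-enriched and analysed by diaPASEF. Competition ratio = intensity DMSO / intensity compound (n=4 treated, n=64 DMSO); binding: mean log2 CR ≥ 1 and p ≤ 0.05 plus QC filters. Target is the cysteine site.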
# [2] = compound: ClCC(=O)N[C@H]1CCCc2ccccc12; assay: as above; conditions: treatment time: 4 h, cell line lysate: HEK293T
# Method: as §1
Target,log2 mean competition ratio ([1]; 50 µM),log2 mean competition ratio ([1]; 200 µM),log2 mean competition ratio ([2]; 50 µM),log2 mean competition ratio ([2]; 200 µM)
COBLL1 C610 (UniProt Q53SF7),-0.119,-0.383,0.221,-0.373
CLCN7 C211 (UniProt P51798),0.176,-0.134,-0.323,-0.263
COPG1 C516 (UniProt Q9Y678),0.453,0.00468,-0.182,-0.0467
CORO2A C25 (UniProt Q92828),0.122,-0.017,0.286,-0.0109
CHD8 C1780 (UniProt Q9HCK8),0.186,0.00846,0.0605,0.166
CRACR2A C341 (UniProt Q9BSW2),0.305,0.0567,0.0788,0.142
CNKSR3 C171,0.273,-0.572,0.13,-0.31
CHM C276 (UniProt P24386),-0.202,-0.424,0.0732,-0.158
COX6B1 C54 (UniProt P14854),0.113,0.155,0.658,0.329
COMMD4 C34 (UniProt Q9H0A8),0.0639,-0.145,0.425,-0.394
COPB1 C623 (UniProt P53618),-0.178,-0.255,0.0839,0.103
COPA C245 (UniProt P53621),-0.151,-0.057,0.305,0.0814
CKAP5 C1500 (UniProt Q14008),0.0415,-0.198,-0.104,-0.288
COG2 C287 (UniProt Q14746),0.469,0.203,0.253,-0.0345
CHUK C658 (UniProt O15111),0.351,-0.0469,0.216,-0.0314
COPS5 C218 (UniProt Q92905),-0.107,-0.076,-0.123,-0.105
CNBP C161 (UniProt P62633),0.11,0.0363,0.0675,0.00816
CNBP C57 (UniProt P62633),0.271,-0.465,0.125,-0.321
CPNE3 C249 (UniProt O75131),-0.069,-0.0328,0.211,-0.029
CNN3 C173 (UniProt Q15417),0.665,-0.0317,0.51,-0.0112
CPSF2 C335 (UniProt Q9P2I0),0.275,-0.0129,0.103,0.121
CKAP2L C124 (UniProt Q8IYA6),0.0432,-0.152,0.547,-0.213
CNST C268 (UniProt Q6PJW8),0.0302,0.298,-0.209,0.0173
CLSPN C763 (UniProt Q9HAW4),-0.443,-0.151,-0.207,-0.283

# Some values from the results shown.
# Value of CNBP C57 (UniProt P62633) under log2 mean competition ratio ([2]; 50 µM): 0.125
# Value of COPS5 C218 (UniProt Q92905) under log2 mean competition ratio ([1]; 200 µM): -0.076
